Laboratory results reported in PubChem BioAssay AID504834 (National Center for Advancing Translational Sciences (NCATS), 2011).
The whole screen tested about 320,000 compounds, of which about 22,000 (6.9%) were called active. Inconclusive means that the source gave no clear call. Such entries were picked first, then a sample of the others. Calls come from the whole dose curve; as a rule, active = well fitted inhibition curve with a large enough effect; inconclusive = small, poorly fitted or top-dose-only effect, or another doubt; inactive = no such curve, though single readings can be large or run the other way. Where the call is inconclusive, the potency comes from a doubtful curve fit.
% is set by controls: 0 for no effect and ±100 for the full control effect; potency is the fitted concentration of half-maximal effect.

Test: Primary qHTS for delayed death inhibitors of the malarial parasite plastid, 96 hour incubation
Conditions: P. falciparum luciferase reporter growth; series mostly up to 28.7 µM; activity change, negative = inhibition: at the top concentration
In short: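 96 h incubation, 37 C, 5% CO2, of luciferase-reporter P. falciparum-infected RBCs (2% hematocrit, 0.05% parasitemia final) with test compounds; endpoint luminescence.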
For `Cc1ccsc1C(=O)C1CCCN(Cc2ccc(O)cc2)C1` (configuration not stated), the Potency was inconclusive: 10.4 µM [inhibitor, single point]. For `CC(=O)N1CCN(C(=O)CCc2nc3sc4c(c3c(=O)[nH]2)CCCC4)CC1`, the Potency was inconclusive: 6.57 µM [inhibitor, partial curve, poor fit]. With `COc1ccc(CCNC(=O)c2ccc3c(c2)NC(=O)CS3)cc1OC` the Potency was inconclusive: 18.5 µM [inhibitor, single point]. For `COC(=O)c1ccc2c(=O)n(CCCCCC(=O)O)c(=O)[nH]c2c1`, the Potency was inconclusive: 18.5 µM [inhibitor, single point]. For `COc1cc(/C=C(\C#N)C(=O)Nc2cccc3ncccc23)ccc1O`, the “activity change, negative = inhibition” value was inactive: 16.2%. For `CCOc1ccccc1NC(=O)c1cccc(S(=O)(=O)N(Cc2ccccc2)c2ccccc2OC)c1`, the Potency was active: 2.62 µM. For `CC(C)=CCCC(C)CN1CCC(N2CCC(C(=O)NC(C)C)CC2)CC1` (configuration not stated), the Potency was inconclusive: 11.7 µM [inhibitor, single point]. In the case of `COc1ccccc1CN1CC(C(=O)NCCc2ccc(C)o2)CCC1=O` (configuration not stated), the Potency is reported as active: 9.28 µM. For `C=CCSC1=N/C(=C\c2cccnc2)C(=O)N1c1ccc(OC)cc1`, the Potency was inconclusive: 18.5 µM [inhibitor, single point]. With `O=C(c1ccco1)c1nnn(Cc2ccccc2)c1-c1ccccc1` the “activity change, negative = inhibition” value was inactive: -12.6%. For `Cc1ccccc1NC(=S)NC(NC(=O)c1ccccc1C)C(Cl)(Cl)Cl` (configuration not stated), the Potency was active: 2.62 µM. For `O=[N+]([O-])c1cc(S(=O)(=O)Nc2ccccc2)ccc1N1CCN(c2ccccc2)CC1`, the Potency was inconclusive: 10.4 µM [inhibitor, partial curve]. For `Cc1ccccc1OCC(O)Cn1c2ccccc2c2ccccc21` (configuration not stated), the Potency was active: 11.7 µM. With `Cc1ccc(Nc2nc(NCc3ccco3)c3ccccc3n2)cc1` the “activity change, negative = inhibition” value was inactive: -24.5%. With `O=C(CNC(=S)N(Cc1ccccc1Cl)C1CCCC1)NCCN1CCOCC1` the “activity change, negative = inhibition” value was inactive: 37.7%. In the case of `CNc1ncc(C(=O)c2ccccc2)s1`, the “activity change, negative = inhibition” value is reported as inactive: 284%. For `Cc1ccc(C(=O)NCC(C)(C)O)cc1`, the Potency was inconclusive: 11.7 µM [inhibitor, partial curve, poor fit]. In the case of `CN1CCN(C(=S)c2cn(Cc3ccc(Br)cc3)c3ccccc23)CC1`, the “activity change, negative = inhibition” value is reported as inactive: -0.521%. With `COc1ccc(-c2noc(CNC(=O)C(C)Oc3ccccc3)n2)cc1` (configuration not stated) the Potency was active: 13.1 µM. With `O=C1Nc2ccccc2Oc2cc(Oc3ccccc3)ccc21` the “activity change, negative = inhibition” value was inactive: -3.64%. With `NNC(=O)CCc1ccc(S(=O)(=O)N2CCOCC2)cc1` the “activity change, negative = inhibition” value was inactive: 0.614%. In the case of `CCOC(=O)CC(=O)NC(C)(C)CCCCC(C)(C)NC(=O)CC(=O)OCC`, the “activity change, negative = inhibition” value is reported as inactive: 0.466%. In the case of `Cc1cc(C(=O)COC(=O)Cc2n[nH]c(=O)c3ccccc23)c(C)n1CC(F)(F)F`, the Potency is reported as inconclusive: 18.5 µM [inhibitor, single point]. For `O=C(NCCCN=C1NS(=O)(=O)c2ccccc21)c1ccc(Cl)cc1`, the Potency was inconclusive: 13.1 µM [inhibitor, single point]. In the case of `COc1ccccc1OCC(=O)Nc1cc(NC(=O)COc2ccccc2OC)cc(C(=O)O)c1`, the Potency is reported as inconclusive: 18.5 µM [inhibitor, single point]. For `NC(=O)Nc1ccc(C(=O)OCC(=O)Nc2cccc(S(=O)(=O)NC3=NCCCCC3)c2)cc1`, the Potency was inconclusive: 18.5 µM [inhibitor, single point]. In the case of `CC(CC(=O)N1CCc2ccccc21)S(=O)(=O)c1ccc2c(c1)NC(=O)CO2` (configuration not stated), the Potency is reported as active: 10.4 µM. In the case of `Cc1cc(NC(=O)CSc2nc3cc(C(=O)NCCCOC(C)C)ccc3c(=O)n2Cc2ccco2)no1`, the Potency is reported as inconclusive: 13.1 µM [inhibitor, single point]. For `CCn1cc(/C=C(\NC(=O)c2ccccc2F)C(=O)NCCN2CCOCC2)c2ccccc21`, the Potency was inconclusive: 11.7 µM [inhibitor, single point]. In the case of `CSc1ccc(N2C(=O)NC3(CCCCC3)C2=O)cc1`, the “activity change, negative = inhibition” value is reported as inactive: 19.2%. In the case of `CCCC(=O)NCCc1nc2cc([N+](=O)[O-])ccc2n1C`, the “activity change, negative = inhibition” value is reported as inactive: 6.03%. With `CCOc1ccccc1N1CC(C(=O)Nc2ccccc2N2CCOCC2)CC1=O` (configuration not stated) the Potency was inconclusive: 10.4 µM [inhibitor, partial curve, poor fit]. With `Cc1ccnc(NC(=O)c2ccc(Cl)c(NC(=O)c3ccccc3C)c2)c1` the Potency was inconclusive: 16.5 µM [inhibitor, single point]. In the case of `O=C(c1ccc2c(=O)n(Cc3ccccc3Cl)c(=S)[nH]c2c1)N1CCOCC1`, the Potency is reported as inconclusive: 1.04 µM [inhibitor, full curve]. With `Cc1ccc(S(=O)(=O)N2CCC(C(=O)NCc3ccccc3Cl)CC2)cc1` the Potency was active: 10.4 µM. With `COc1ccc2c(C)nc(Nc3nc(C)c(C)c(=O)[nH]3)nc2c1` the Potency was inconclusive: 9.28 µM [inhibitor, partial curve, poor fit]. For `O=C(CCCC(=O)NCc1ccccc1)NCc1ccccc1`, the Potency was inconclusive: 11.7 µM [inhibitor, single point]. With `COc1ccc(C(=O)Nc2nc(CC(=O)NCCc3ccccc3OC)cs2)cc1` the Potency was inconclusive: 18.5 µM [inhibitor, single point]. For `COc1ccc(-c2nn(-c3ccccc3)cc2C(=O)O)cc1N`, the Potency was inconclusive: 18.5 µM [inhibitor, single point]. For `C=CCNC(=S)NNC(=O)c1csc(C)c1CC`, the Potency was inconclusive: 1.65 µM [inhibitor, partial curve, poor fit]. For `O=S(=O)(NCc1cccnc1)c1ccc2c(c1)OCCO2`, the Potency was active: 13.1 µM. For `COc1ccc(C(C)NC(=S)NC2CCCC2)cc1OC` (configuration not stated), the Potency was inconclusive: 0.928 µM [inhibitor, partial curve, poor fit]. With `Cc1cc(NC(=O)/C=C\C(=O)O)c([N+](=O)[O-])cc1C` the Potency was inconclusive: 20.8 µM [inhibitor, partial curve, poor fit]. With `COc1ccc(NC(=O)C2=CC(c3ccco3)=NS(=O)(=O)N2C)cc1` the “activity change, negative = inhibition” value was inactive: -0.813%. In the case of `O=C(NCC1CCCO1)c1nn2c(C(F)(F)F)cc(-c3ccc(Br)o3)nc2c1Br` (configuration not stated), the “activity change, negative = inhibition” value is reported as inactive: 14.1%. For `CC(C)C(O)(C#CCN1CCCC1)c1ccccc1` (configuration not stated), the Potency was inconclusive: 4.15 µM [inhibitor, single point]. In the case of `O=C(NC(=S)N1CCN(c2ccc(F)cc2)CC1)C12CC3CC(CC(C3)C1)C2`, the Potency is reported as inconclusive: 11.7 µM [inhibitor, single point].
